Measured data: PubChem BioAssay AID1259269 (Sanger Institute, 2017)
Aim: 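Retest knock-downs that hurt colorectal cancer cells more once an anchor drug is added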 (follow-up of hits). Cells: HCC2998 human colorectal cancer cells. Reagent: single siRNA against human genes. Treatment: anchor drug BYL719 1 µM, cetuximab 5 µg/ml or trametinib 10 nM; DMSO vehicle as comparison arm. Detection: 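Replicate-averaged survival relative to non-targeting control siRNA with DMSO or drug (BYL719 1 µM, cetuximab 5 µg/ml, trametinib 10 nM); per-drug synergy score, higher for stronger synthetic lethality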. Direction: synergy score with BYL719 and synergy score with cetuximab and synergy score with trametinib: higher = stronger synthetic lethal effect with the drug. Hit rule: 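Active if the synergy score exceeds 0.10 for at least one of BYL719, cetuximab or trametinib; otherwise inactive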. Meaning of the calls: active = synergy with at least one drug; inactive = no synergy with any drug.
The deposit covers 160 reagents; below is a part drawn at random. Of all reagents, 108 (68%) got an active call. 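Viability cannot exceed 1; how synergy scores were computed is not described.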 Entries without a mark were called inactive. Reagents against one gene are numbered here. Not all columns of the deposit are shown. Reagent sequences are not shown. Not given: the amount of reagent, the time to read-out.

no.	target	reagent no.	synergy score with BYL719	synergy score with cetuximab	synergy score with trametinib
1	GTF2H1	1	-0.218 (active)	0.133	0.0289
2	GTF2H1	2	0.0125 (active)	0.142	0.0443
3	GTF2H1	3	-0.0703	-0.238	0.0172
4	GTF2H1	4	-0.0205	-0.0224	0.00296
5	PFKFB3	1	-0.162	-0.155	-0.021
6	PFKFB3	2	0.117 (active)	0.211	0.1
7	PFKFB3	3	-0.101 (active)	0.101	-0.0193
8	PFKFB3	4	-0.121	-0.00484	0.0258
9	KCNH8	1	-0.323 (active)	-0.185	0.167
10	KCNH8	2	0.0807 (active)	-0.0109	0.152
11	KCNH8	3	-0.322	-0.143	0.0705
12	KCNH8	4	0.0769 (active)	0.0574	0.283
13	IRAK1	1	-0.116 (active)	0	0.513
14	IRAK1	2	0.0903	0.0495	-0.0821
15	IRAK1	3	0.137 (active)	0.104	0.351
16	IRAK1	4	0.17 (active)	-0.213	-0.124
17	PAK1	1	-0.299 (active)	0.048	0.104
18	PAK1	2	-0.0515 (active)	0.0704	0.105
19	PAK1	3	-0.0571 (active)	-0.00836	0.124
20	PAK1	4	0.161 (active)	0.287	0.197
21	PINK1	1	-0.116	0	-0.0565
22	PINK1	2	0.0715 (active)	0.0503	0.265
23	PINK1	3	0.105 (active)	0.0416	0.291
24	PINK1	4	-0.181 (active)	-0.139	0.254

The list goes on, starting with the last 7 of the part before.
no.	target	reagent no.	synergy score with BYL719	synergy score with cetuximab	synergy score with trametinib
18	PAK1	2	-0.0515 (active)	0.0704	0.105
19	PAK1	3	-0.0571 (active)	-0.00836	0.124
20	PAK1	4	0.161 (active)	0.287	0.197
21	PINK1	1	-0.116	0	-0.0565
22	PINK1	2	0.0715 (active)	0.0503	0.265
23	PINK1	3	0.105 (active)	0.0416	0.291
24	PINK1	4	-0.181 (active)	-0.139	0.254
25	MAPK4	1	-0.273	0.0528	-0.134
26	MAPK4	2	0.137 (active)	0.0653	0.381
27	MAPK4	3	-0.129	-0.23	0.0925
28	MAPK4	4	-0.039	-0.183	0.0383
29	PIM1	1	-0.121 (active)	0.114	0.12
30	PIM1	2	0.0558 (active)	0.0801	0.239
31	PIM1	3	-0.0043	0	0.0834
32	PIM1	4	0.0142	-0.28	-0.00432
33	NLK	1	-0.232 (active)	-0.131	0.176
34	NLK	2	-0.116 (active)	0.141	0.439
35	NLK	3	-0.136 (active)	0.216	0.226
36	NLK	4	-0.0627 (active)	-0.0233	0.243
37	CRIM1	1	0.466 (active)	0.252	0.22
38	CRIM1	2	0.34 (active)	0.0299	0.183
39	CRIM1	3	0.18 (active)	-0.103	0.138
40	CRIM1	4	0.0799 (active)	0.234	0.303
41	STK36	1	-0.29 (active)	-0.0194	0.231
42	STK36	2	-0.0852 (active)	-0.0938	0.183
43	STK36	3	-0.0847 (active)	0.133	0.0576
44	STK36	4	-0.116 (active)	0.188	0.251
45	PIK3CA	1	0.0151	0.0506	0.081
46	PIK3CA	2	0.0818	0.0565	0.081
47	PIK3CA	3	-0.133	-0.165	0.0673
48	PIK3CA	4	-0.265 (active)	-0.178	0.188
49	MPP3	1	-0.116 (active)	0	0.173
50	MPP3	2	-0.0963 (active)	0.204	0.31
51	MPP3	3	0.159 (active)	-0.0708	0.489
52	MPP3	4	-0.196 (active)	0.0862	0.106
